In patent US7781580B2, “Stilbene derivatives as new cancer therapeutic agents” (Virginia Commonwealth University, priority 2007, dated 2010):
Where a name gives a salt, the structure may show the parent alone. Some results were stated once for a whole list of compounds, not compound by compound.

How the values were obtained:
Assay type in all cases: cell-based
[1] = test system: MiaPaCa2 pancreatic cancer cells; experiment: Alamar Blue cell growth inhibition, MiaPaCa2; details: MiaPaCa2, 48 hours
Method: (§1) Various cancer cell lines were grown in 96-well plates for drug sensitivity assays. Once cells achieved 50% confluence, the incubation media was changed to the same cell growth media with different concentrations of the tested compounds or vehicle alone. Cells were then incubated for 48 hours before the cell growth inhibition study. To determine the degree of cell growth inhibition, 1/10 volume of Alamar Blue™ solution was added to each well and optical density (OD) at 570 and 600 nm was determined. The percentage of growth inhibition was calculated according to the manufacturer's formula as follows: The percentage of growth is [(117216×A570)−(80586×A600)]/[(117216×A^o570)−(80586×A^o600)]×100. In this formula, A570 is the absorbance of the treated samples at 570 nm; A600 is the absorbance of the treated samples at 600 nm; A^o570 is the absorbance of the […] samples at 570 nm; and A^o600 is the absorbance of the untreated samples at 600 nm. The two constants, 117216 and 80586, are the extinction coefficients of Alamar Blue™ at 570 and 600 nm respectively. […]
We first tested the cytotoxic effect of various stilbene derivatives for their in vitro efficacy of suppressing tumor cell proliferation. […] Alamar Blue™ reagent was added into each well at 1/10 volume and incubated for 2 hours before quantification of the absorbance at 570 and 600 nm.

[2] = test system: MDA-MB231 breast cancer cells; experiment: Alamar Blue cell growth inhibition, MDA-MB231; details: MDA-MB231, 48 hours
Method: Cell growth was measured by Alamar Blue™ staining and the percentage of cell growth inhibition was calculated and compared with control cells that were treated with 0.1% DMSO, the vehicles for the stilbene compounds.
as §1, with “respectively. Each concentration was repeated in triplicate to minimize the error.” for “respectively.”

[3] = test system: UCI101 ovarian cancer cells; experiment: Alamar Blue cell growth inhibition, UCI101
Method: Cell growth was measured by AlamarBlue™ staining and the percentage of cell growth inhibition was calculated and compared with the control cells that were treated with 0.1% DMSO, the vehicles for the stilbene compounds.
Cells were treated with the tested drug for 2 days before analysis of cell growth by Alamar Blue™ staining. Cells treated with 0.1% DMSO were used as control and set as 100%.
(a) In vitro sensitivity of UCI101 cells toward three potential stilbene prodrugs, 5a-c, was tested in 96-well plates using Alamar Blue™ assays to determine cell growth inhibition. […] (b) 5b induces cell cycle change and apoptosis in UCI101 cells. […] Tumor volume was calculated and plotted against days.
as §1, with “Once cells achieved 50% confluence, the incubation media was changed to the same cell growth media with different concentrations of the tested compounds or vehicle alone. Cells were then incubated for 48 hours before the cell growth inhibition study.” left out, “nm.” for “nm. The two constants, 117216 and 80586, are the extinction coefficients of Alamar Blue™ at 570 and 600 nm respectively.”

SMILES | effective concentration [1] | effective concentration [2] | effective concentration, cell growth suppression [3]
CC[C@]1(O)C[C@H]2CN(CCc3c([nH]c4ccccc34)[C@@](C(=O)OC)(c3cc4c(cc3OC)N(C=O)[C@H]3[C@@](O)(C(=O)OC)[C@H](OC(C)=O)[C@]5(CC)C=CCN6CC[C@]43[C@@H]65)C2)C1 [vincristine, reference compound] | less than 0.1 μM | less than 0.1 μM | 
COc1cc(/C=C\c2ccc3c(ccn3C)c2)cc(OC)c1 [13a, (Z)-5-[2-(3,5-Dimethoxy-phenyl)-vinyl]-1-methyl-1H-indole] | less than 0.1 μM | less than 0.1 μM | 
COc1cc(/C=C\c2ccc(OC)c(NC(=O)NCCN3CCOCC3)c2)cc(OC)c1 [5a, (Z)1-{5-[2-(3,5-Dimethoxy-phenyl)-vinyl]-2-methoxy-phenyl}-3-(2-morpholin-4-yl-ethyl)-urea, hydrochloride] |  |  | > 3 µM
COc1cc(/C=C\c2ccc(OC)c(NC(=O)OCCOCCOCCO)c2)cc(OC)c1 [5c, (Z)-{5-[2-(3,5-Dimethoxy-phenyl)-vinyl]-2-methoxy-phenyl}-carbamic acid-2-[2-(2-hydroxy-ethoxy)-ethoxy]-ethyl ester] |  |  | > 3 µM
